Laboratory results reported in PubChem BioAssay AID504467 (National Center for Advancing Translational Sciences (NCATS), 2011).
In all, about 330,000 compounds went through this assay and about 7,700 (2.3%) were called active. Inconclusive results, whose numbers are uncertain, are shown with a selection of clear calls. The call rests on the fitted dose curve; in most records, active means well fitted inhibition curve with a large enough effect; inconclusive means small, poorly fitted or top-dose-only effect, or effect the other way; inactive means flat fitted curve, though single readings scatter. Where the call is inconclusive, the potency comes from a doubtful curve fit.

Experiment: qHTS screen for small molecules that inhibit ELG1-dependent DNA repair in human embryonic kidney (HEK293T) cells expressing luciferase-tagged ELG1; further: nearly all actives have a fitted effect of over 55% in size
Settings: HEK293T ELG1-luciferase reporter, luminescence, 16 h, DNA damage induced by 5-fluorouridine; activity change, negative = inhibition: at 46.1 µM (top of the series)
How it was run: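 Overnight (16 hr) co-exposure of 2,000 cells/well to 5-fluorouridine and compound at 37 °C preceded detection. Luciferase was quantified via ONE-Glo luminescence; loss of signal denotes inhibition.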
On the % scale 0 is the no-effect control and ±100 the full control effect; potency means the concentration at half of the fitted maximal effect.

| Compound | Potency | activity change, negative = inhibition |
| --- | --- | --- |
| O=C(Cc1ccc(Br)cc1)N1CCOCC1 | inconclusive: 18.3 µM [activator, partial curve] | – |
| CC(C)CNC(=S)N(CCCO)Cc1cc2cc3c(cc2[nH]c1=O)OCCO3 | inconclusive: 35.5 µM [inhibitor, single point] | – |
| Cc1onc(-c2ccccc2Cl)c1C(=O)Nc1sc2c(c1C(N)=O)CCC(C)C2 (stereo not drawn) | inconclusive: 18.4 µM [inhibitor, single point] | – |
| COc1ccccc1CN1CCNC(=O)C1CC(=O)NCc1c(C)n[nH]c1C (stereo not drawn) | inconclusive: 29.1 µM [inhibitor, single point] | – |
| COc1cccc(CN2CC(C(=O)NCc3cccc(N4CCCC4)c3)CCC2=O)c1 (stereo not drawn) | – | inactive: -5.32% |
| CN(CC(=O)Nc1ccc(N2CCOCC2)cc1)C(=O)c1cn(-c2ccccc2)nc1-c1ccccc1 | inconclusive: 29.1 µM [inhibitor, partial curve, poor fit] | – |
| Cc1ccc(OC(=O)CCC(=O)NC(C)c2ccccc2)cc1 (stereo not drawn) | – | inactive: -1.35% |
| c1ccc(CCc2nn3c(-c4ccncc4)nnc3s2)cc1 | active: 2.59 µM | – |
| C/C=C(\C)C(=O)NCCN1C2=NC[C@@H](Cc3ccccc3)N2C[C@H]1Cc1ccc(O)cc1 | inconclusive: 18.3 µM [inhibitor, single point] | – |
| O=C(NC1CCCC1)c1ccc2nc[nH]c2c1 | – | inactive: 5.83% |
| Cc1ccc(C(=O)Nc2cccc(S(=O)(=O)N3CCOCC3)c2)cc1[N+](=O)[O-] | inconclusive: 29.1 µM [inhibitor, single point] | – |
| COc1ccc(CN(C)CC(O)COc2ccc(-c3ccccc3)cc2)cc1OC (stereo not drawn) | – | inactive: -6.4% |
| O=C(N/N=C/c1c(Nc2cccc(C(F)(F)F)c2)nc2ccccn2c1=O)c1ccccc1 | inconclusive: 6.51 µM [inhibitor, single point] | – |
| COc1ccc(CN2C(=O)/C(=C/c3ccncc3)SC2=S)cc1 | inconclusive: 18.4 µM [inhibitor, partial curve, poor fit] | – |
| CC(=O)c1cccc(NC(=O)c2onc(C)c2Cl)c1 | inconclusive: 6.51 µM [activator, partial curve] | – |
| COc1ccc(C2CC(c3ccccc3)=NN2c2ccc(/C=N/NC(=O)c3ccncc3)cc2)cc1 (stereo not drawn) | inconclusive: 11.2 µM [inhibitor, partial curve, poor fit] | – |
| Cn1c(=O)c2c(nc(Br)n2Cc2c(F)cccc2Cl)n(C)c1=O | inconclusive: 0.0651 µM [inhibitor, full curve, poor fit] | – |
| O=C(Nc1ccc(Br)cc1)N1CCCCCCC1 | inconclusive: 16.4 µM [activator, partial curve] | – |
| O=C(Nc1ccc(F)cc1F)N1CCCCCC1 | inconclusive: 23.1 µM [activator, single point] | – |
| CC(C)Nc1nc(NC(C)C)nc(N(C#N)CCOc2ccc(Cl)cc2Cl)n1 | inconclusive: 29.1 µM [inhibitor, single point] | – |
| CN(C(=O)CCN1C(=O)C2C3C=CC(C3)C2C1=O)c1ccccc1 (stereo not drawn) | inconclusive: 0.82 µM [inhibitor, single point] | – |
| CCOc1cc(C)c(C(C)C)cc1S(=O)(=O)n1cnc(C)c1 | – | inactive: -6.63% |
| COc1ccc(OC)c(-c2csc(N(C)C(=O)Cc3ccccc3)n2)c1 | inconclusive: 29.1 µM [inhibitor, single point] | – |

Structures from the list above that contain fluorine, in the order listed:

| Compound | Potency | activity change, negative = inhibition |
| --- | --- | --- |
| O=C(N/N=C/c1c(Nc2cccc(C(F)(F)F)c2)nc2ccccn2c1=O)c1ccccc1 | inconclusive: 6.51 µM [inhibitor, single point] | – |
| Cn1c(=O)c2c(nc(Br)n2Cc2c(F)cccc2Cl)n(C)c1=O | inconclusive: 0.0651 µM [inhibitor, full curve, poor fit] | – |
| O=C(Nc1ccc(F)cc1F)N1CCCCCC1 | inconclusive: 23.1 µM [activator, single point] | – |

(continued)

| Compound | Potency | activity change, negative = inhibition |
| --- | --- | --- |
| Cc1cc2c(cc1C)-c1nnnn1C(C)(C)C2 | – | inactive: 20.9% |
| O=C(Cc1ccc(F)cc1)OCN1C(=O)c2ccccc2C1=O | inconclusive: 29.1 µM [inhibitor, single point] | – |
| COc1ccccc1CNC(=O)[C@@H]1CCCN1C(=O)[C@@H]1Cc2ccccc2CN1C(=O)OC(C)(C)C | – | inactive: 12.9% |
| O=S1(=O)c2cccc3cccc(c23)N1Cc1nnc(-c2ccccc2Br)o1 | active: 23.1 µM | – |
| Cc1ccccc1Nc1nc(N)nc(CN(C)Cc2ccccc2Cl)n1 | inconclusive: 9.2 µM [activator, partial curve] | – |
| CCCCn1nc2cc(C(=O)NC3CCc4ccccc43)ccc2c1OCC (stereo not drawn) | inconclusive: 18.4 µM [inhibitor, single point] | – |
| N#C/C(=C\c1ccc(C#N)cc1)C(=O)c1ccccc1 | – | inactive: 21.5% |
| Cc1cn([C@@H](CCCCNC(=O)OC(C)(C)C)C(=O)NCCCCCCCCCCC(=O)N2CCN(C(=O)OC(C)(C)C)CC2)nn1 | inconclusive: 7.94 µM [inhibitor, single point] | – |
| CC(=O)N1c2ccc(S(=O)(=O)NCCc3ccc(S(N)(=O)=O)cc3)cc2CC1C (stereo not drawn) | – | inactive: 6.92% |
| CCc1nnc(NC(=O)C2CC(=O)N(Cc3ccccc3)C2)s1 (stereo not drawn) | inconclusive: 16.4 µM [activator, single point] | – |
| CCOc1ccc(NC(=O)CN(C)C(=O)C2CCCO2)cc1OCC (stereo not drawn) | – | inactive: -2.95% |
| COc1ccc(-c2c[n+]3c(n2-c2ccccc2)CCCCC3)cc1 | inconclusive: 0.651 µM [inhibitor, partial curve, poor fit] | – |
| CCOc1cc(-c2noc(-c3ccncc3)n2)cc(Br)c1OC | – | inactive: 11.2% |
| COc1ccc(-c2csc(NC(=O)COC(=O)c3ccco3)n2)cc1 | inconclusive: 16.4 µM [activator, partial curve] | – |
| Fc1cccc(CCN2CCNC[C@@H]2CC2CCCCC2)c1 | – | inactive: -0.682% |
| CCOc1ccc(-n2ccnc(SCC(=O)Nc3ccc(OC)cc3OC)c2=O)cc1 | inconclusive: 25.9 µM [inhibitor, single point] | – |
| CC(=O)NC1=NN(C(C)=O)C(C)(c2ccc(Cl)s2)S1 (stereo not drawn) | inconclusive: 2.59 µM [inhibitor, partial curve, poor fit] | – |
| CC1CC(N(C(=O)c2ccc(Cl)cc2)c2ccccc2)c2ccccc2N1C(=O)c1ccco1 (stereo not drawn) | inconclusive: 20.6 µM [inhibitor, single point] | – |
| COc1ccc(OC)c(CCNC(=O)CS(=O)(=O)Cc2nc(-c3ccc(C)cc3)oc2C)c1 | inconclusive: 35.5 µM [inhibitor, single point] | – |
| O=C(NCCc1ccccc1)c1ccc(Cl)cc1[N+](=O)[O-] | inconclusive: 14.6 µM [activator, partial curve] | – |
| CCN(CC)S(=O)(=O)c1cc(C(=O)Nc2ccccn2)ccc1C | inconclusive: 3.66 µM [activator, partial curve] | – |
| OCC[C@@H]1C[C@@H](O)[C@H](O)[C@@]2(Cc3ccccc3CCO2)O1 | – | inactive: 8.19% |
| Cn1c(=S)n(/N=C/c2ccc3c(c2)OCO3)c2ccccc21 | inconclusive: 11.6 µM [activator, partial curve, poor fit] | – |

| Compound | Potency | activity change, negative = inhibition |
| --- | --- | --- |
| CCCN1CCN(C(=O)c2cc(COc3ccc(F)c(F)c3)on2)CC1 | inconclusive: 20.6 µM [activator, partial curve] | – |
| COc1c(O)ccc(/C=N/NC(=O)c2ccc3c(c2)OCCO3)c1[N+](=O)[O-] | inconclusive: 8.2 µM [activator, partial curve] | – |
| COc1cc(C2/C(=C(\O)c3ccc4c(c3)OCCO4)C(=O)C(=O)N2Cc2ccco2)ccc1O (stereo not drawn) | inconclusive: 32.6 µM [activator, partial curve, poor fit] | – |
| Cc1ccccc1CN1C2=NCCN2c2ccccc21 | – | inactive: -2.93% |
| COc1cccc(OCc2nc3ccccc3c(=O)n2N)c1 | inconclusive: 4.11 µM [activator, single point] | – |
| CCCn1c(N)c(CC)c(=O)[nH]c1=O | inconclusive: 20.6 µM [activator, single point] | – |
| Nc1ccccc1SCC(=O)Nc1nc(-c2ccccc2)cs1 | inconclusive: 6.51 µM [inhibitor, single point] | – |
| O=S(=O)(Nc1ccc(Br)cn1)c1ccc2ccccc2c1 | – | inactive: 10.8% |
| O=C(/C=C/c1c[nH]c2ccccc12)c1cccc2ccccc12 | – | inactive: 1.37% |
| COc1ccc(N2C(=O)c3ccccc3NC2c2ccc(OC)c(CN3CCOCC3)c2)cc1 (stereo not drawn) | inconclusive: 10.3 µM [activator, partial curve] | – |
| CC(=O)c1cccc(NC(=O)CSc2n[nH]c(=O)n2C2CC2)c1 | inconclusive: 4.61 µM [inhibitor, partial curve, poor fit] | – |
| Cc1cccn2c(=O)c3cc(C(=O)N4COCC4(C)C)sc3nc12 | inconclusive: 14.6 µM [activator, partial curve, poor fit] | – |
| Cc1nc(-c2ccc(Cl)cc2)sc1C1(C)CC(c2ccccc2F)=NO1 (stereo not drawn) | inconclusive: 16.4 µM [activator, single point] | – |
| CCOC(=O)N1CCN(Cc2cn[nH]c2-c2cc3ccccc3o2)CC1 | inconclusive: 29.1 µM [inhibitor, single point] | – |
| CCOc1ccc(S(=O)(=O)N(CC)CC(=O)NCc2ccco2)cc1C | – | inactive: -15% |
| CCN(Cc1nc2ccccc2c(=O)[nH]1)Cc1nc2ccsc2c(=O)[nH]1 | inconclusive: 14.6 µM [inhibitor, partial curve, poor fit] | – |
| Oc1ccccc1CNCc1ccccc1 | – | inactive: 11.1% |
| CCOC(=O)C1=C(N)N(c2ccccc2)C2=C(C(=O)CCC2)C1c1cccnc1 (stereo not drawn) | – | inactive: -3.56% |
| CCC(=O)Nc1nc2ccccc2n1Cc1ccc(Cl)cc1 | inconclusive: 6.51 µM [inhibitor, partial curve, poor fit] | – |
| N#C/C(=C\c1c(N2CCC(C(N)=O)CC2)nc2ccccn2c1=O)C(=O)NCc1ccco1 | inconclusive: 1.16 µM [inhibitor, partial curve, poor fit] | – |
| CCC1CCCCN1c1nc2c(C=O)c(C)nn2c2ccccc12 (stereo not drawn) | inconclusive: 18.4 µM [inhibitor, partial curve] | – |
| O=C(Cc1ccccc1F)Nc1nc2ccccc2[nH]1 | inconclusive: 20.6 µM [activator, single point] | – |
